According to publication PMC11062894, “Protein-based bandpass filters for controlling cellular signaling with chemical inputs” (Nature Chemical Biology, 2023):
“And” between values parts separate entries of the source, which are not always exact repeats. Identical values can stand only once. The source gives many values for each of these; only a part stands here.

System: GEMS receptors with CBPvene (Bcl2–LD3 and Bcl2high variants), STAT3-driven SEAP in HEK293T cells
Assay: GEMS SEAP reporter assay, CBPvene (Bcl2high, LD3-v and Bcl2-v variants) with venetoclax
Assay type: cell-based
Details: for Normalized data (SEAP) / Raw data (SEAP): SuppFigure 8a
[1] = Supp Fig 10c, Bcl2-v3, venetoclax 100 nM
[2] = Supp Fig 10c, Bcl2-v3, venetoclax 316 nM
[3] = Supp Fig 10c, Bcl2-v3, venetoclax 1000 nM
[4] = Supp Fig 10c, Bcl2-v3, venetoclax 3160 nM
[5] = Supp Fig 10c, Bcl2-v3, venetoclax 10000 nM
[6] = Supp Fig 10c, Bcl2-v5, venetoclax 10 nM
[7] = Supp Fig 10c, Bcl2-v5, venetoclax 31.6 nM
[8] = Supp Fig 10c, Bcl2-v5, venetoclax 100 nM
[9] = Supp Fig 10c, Bcl2-v5, venetoclax 316 nM
[10] = Supp Fig 10c, Bcl2-v5, venetoclax 1000 nM
[11] = Supp Fig 10c, Bcl2-v5, venetoclax 3160 nM
[12] = Supp Fig 10c, Bcl2-v5, venetoclax 10000 nM
[13] = Supp Fig 10c, Bcl2-v6, venetoclax 3.16 nM
[14] = Supp Fig 10c, Bcl2-v6, venetoclax 10 nM
[15] = Supp Fig 10c, Bcl2-v6, venetoclax 31.6 nM
[16] = Supp Fig 10c, Bcl2-v6, venetoclax 100 nM
[17] = Supp Fig 10c, Bcl2-v6, venetoclax 316 nM
[18] = Supp Fig 10c, Bcl2-v6, venetoclax 1000 nM
[19] = Supp Fig 10c, Bcl2-v6, venetoclax 3160 nM
[20] = Supp Fig 10c, Bcl2-v6, venetoclax 10000 nM
[21] = Supp Fig 10c, Bcl2, venetoclax 10 nM
[22] = Supp Fig 10c, Bcl2, venetoclax 31.6 nM
[23] = Supp Fig 10c, Bcl2, venetoclax 100 nM
[24] = Supp Fig 10c, Bcl2, venetoclax 316 nM
[25] = Supp Fig 10c, Bcl2, venetoclax 1000 nM
[26] = Supp Fig 10c, Bcl2, venetoclax 3160 nM
[27] = Supp Fig 10c, Bcl2, venetoclax 10000 nM

Compound: CC1(C)CCC(CN2CCN(c3ccc(C(=O)NS(=O)(=O)c4ccc(NCC5CCOCC5)c([N+](=O)[O-])c4)c(Oc4cnc5[nH]ccc5c4)c3)CC2)=C(c2ccc(Cl)cc2)C1 [Venetoclax]
- SEAP [1]: 33.497
- SEAP normalized (max=100) [1]: 90.0123
- SEAP [2]: 33.007
- SEAP normalized (max=100) [2]: 88.6957
- SEAP [3]: 11.8512
- SEAP normalized (max=100) [3]: 31.8462
- SEAP [4]: 12.6786
- SEAP normalized (max=100) [4]: 34.0697
- SEAP [5]: 7.771
- SEAP normalized (max=100) [5]: 20.8817
- SEAP [6]: 24.348
- SEAP normalized (max=100) [6]: 94.4802
- SEAP [7]: 16.5209
- SEAP normalized (max=100) [7]: 64.1079
- SEAP [8]: 23.7437
- SEAP normalized (max=100) [8]: 92.1352
- SEAP [9]: 10.445
- SEAP normalized (max=100) [9]: 40.5307
- SEAP [10]: 11.7468
- SEAP normalized (max=100) [10]: 45.5824
- SEAP [11]: 6.748
- SEAP normalized (max=100) [11]: 26.1838
- SEAP [12]: 4.991
- SEAP normalized (max=100) [12]: 19.367
- SEAP [13]: 49.3848
- SEAP normalized (max=100) [13]: 26.7736
- SEAP [14]: 55.272
- SEAP normalized (max=100) [14]: 29.9654
- SEAP [15]: 62.0564
- SEAP normalized (max=100) [15]: 33.6435
- SEAP [16]: 135
- SEAP normalized (max=100) [16]: 73.1893
- SEAP [17]: 184.453
- SEAP normalized (max=100) [17]: 100
- SEAP [18]: 79.8215
- SEAP normalized (max=100) [18]: 43.2747
- SEAP [19]: 33.0186
- SEAP normalized (max=100) [19]: 17.9008
- SEAP [20]: 15.7293
- SEAP normalized (max=100) [20]: 8.528
- SEAP [21]: 13.3529
- SEAP normalized (max=100) [21]: 8.944
- SEAP [22]: 27.684
- SEAP normalized (max=100) [22]: 18.5423
- SEAP [23]: 141.694
- SEAP normalized (max=100) [23]: 94.904
- SEAP [24]: 133.43
- SEAP normalized (max=100) [24]: 89.3694
- SEAP [25]: 149.302
- SEAP normalized (max=100) [25]: 100
- SEAP [26]: 111.983
- SEAP normalized (max=100) [26]: 75.004
- SEAP [27]: 32.3222
- SEAP normalized (max=100) [27]: 21.6488
- SEAP (Supp Fig 10e, CBPVene-v5-Bcl2v2, venetoclax 1 nM): 37.9718 and 36.6065 and 35.2814
- SEAP (Supp Fig 10e, CBPVene-v5-Bcl2v2, venetoclax 3.16 nM): 37.1496 and 40.8191 and 38.9099
- SEAP (Supp Fig 10e, CBPVene-v5-Bcl2v2, venetoclax 10 nM): 35.5651 and 41.8626 and 41.5876
- SEAP (Supp Fig 10e, CBPVene-v5-Bcl2v2, venetoclax 31.6 nM): 68.9479 and 70.401 and 67.6966
- SEAP (Supp Fig 10e, CBPVene-v5-Bcl2v2, venetoclax 100 nM): 149.797 and 156.012 and 191.601
- SEAP (Supp Fig 10e, CBPVene-v5-Bcl2v2, venetoclax 316 nM): 182.798 and 192.307 and 223.486
- SEAP (Supp Fig 10e, CBPVene-v5-Bcl2v2, venetoclax 1000 nM): 141.449 and 149.007 and 144.09
- SEAP (Supp Fig 10e, CBPVene-v5-Bcl2v2, venetoclax 3160 nM): 64.398 and 62.9303 and 51.9708
- SEAP (Supp Fig 10e, CBPVene-v5-Bcl2v2, venetoclax 10000 nM): 27.6798 and 21.7852 and 31.253
- SEAP (Supp Fig 10e, CBPVene-v5, venetoclax 3.16 nM): 30.3563 and 26.3908 and 26.6345
- SEAP (Supp Fig 10e, CBPVene-v5, venetoclax 10 nM): 53.0904 and 39.8802 and 44.9895
- SEAP (Supp Fig 10e, CBPVene-v5, venetoclax 31.6 nM): 27.5418 and 25.4102 and 24.8086
- SEAP (Supp Fig 10e, CBPVene-v5, venetoclax 100 nM): 135.101 and 106.556 and 113.538
- SEAP (Supp Fig 10e, CBPVene-v5, venetoclax 316 nM): 523.324 and 430.565 and 490.151
- SEAP (Supp Fig 10e, CBPVene-v5, venetoclax 1000 nM): 577.626 and 585.371 and 682.822
- SEAP (Supp Fig 10e, CBPVene-v5, venetoclax 3160 nM): 461.236 and 467.711 and 499.656
- SEAP (Supp Fig 10e, CBPVene-v5, venetoclax 10000 nM): 307.085 and 269.935 and 317.486
- SEAP (Supp Fig 10d, CBPVene-v4-Bcl2v2, venetoclax 1 nM): 31.1918 and 36.3952 and 31.7379
- SEAP (Supp Fig 10d, CBPVene-v4-Bcl2v2, venetoclax 3.16 nM): 31.4437 and 36.7806 and 28.5959
- SEAP (Supp Fig 10d, CBPVene-v4-Bcl2v2, venetoclax 10 nM): 36.377 and 37.7021 and 37.2539
- SEAP (Supp Fig 10d, CBPVene-v4-Bcl2v2, venetoclax 31.6 nM): 69.7518 and 80.5008 and 57.3972
- SEAP (Supp Fig 10d, CBPVene-v4-Bcl2v2, venetoclax 100 nM): 211.871 and 227.425 and 220.652
- SEAP (Supp Fig 10d, CBPVene-v4-Bcl2v2, venetoclax 316 nM): 290.788 and 368.506 and 302.291
- SEAP (Supp Fig 10d, CBPVene-v4-Bcl2v2, venetoclax 1000 nM): 233.694 and 276.355 and 255.555
- SEAP (Supp Fig 10d, CBPVene-v4-Bcl2v2, venetoclax 3160 nM): 128.558 and 149.488 and 139.957
- SEAP (Supp Fig 10d, CBPVene-v4-Bcl2v2, venetoclax 10000 nM): 41.5078 and 45.6809 and 45.0373
- SEAP (Supp Fig 10d, CBPVene-v4, venetoclax 1 nM): 25.8055 and 26.2397 and 18.4029
- SEAP (Supp Fig 10d, CBPVene-v4, venetoclax 3.16 nM): 23.589 and 25.2624 and 18.3382
- SEAP (Supp Fig 10d, CBPVene-v4, venetoclax 10 nM): 33.4586 and 32.0727 and 26.1315
- SEAP (Supp Fig 10d, CBPVene-v4, venetoclax 31.6 nM): 100.765 and 111.541 and 57.7785
- SEAP (Supp Fig 10d, CBPVene-v4, venetoclax 100 nM): 277.273 and 269.798 and 273.956
- SEAP (Supp Fig 10d, CBPVene-v4, venetoclax 316 nM): 447.645 and 497.825 and 441.762
- SEAP (Supp Fig 10d, CBPVene-v4, venetoclax 1000 nM): 651.243 and 597.631 and 579.613
- SEAP (Supp Fig 10d, CBPVene-v4, venetoclax 3160 nM): 423.338 and 450.382 and 440.912
- SEAP (Supp Fig 10d, CBPVene-v4, venetoclax 10000 nM): 277.442 and 279.687 and 277.816
- Normalized data (SEAP) (LD3, venetoclax 10 nM): 20.4521
- Raw data (SEAP) (LD3, venetoclax 10 nM): 16.842
- Normalized data (SEAP) (LD3, venetoclax 31.6 nM): 36.5125
- Raw data (SEAP) (LD3, venetoclax 31.6 nM): 30.0676
- Normalized data (SEAP) (LD3v1, venetoclax 10 nM): 76.5447
- Raw data (SEAP) (LD3v1, venetoclax 10 nM): 14.5584
- Normalized data (SEAP) (LD3v1, venetoclax 31.6 nM): 88.0905
- Raw data (SEAP) (LD3v1, venetoclax 31.6 nM): 16.7543
- Normalized data (SEAP) (LD3v2, venetoclax 10 nM): 20.2562
- Raw data (SEAP) (LD3v2, venetoclax 10 nM): 16.4463
- Normalized data (SEAP) (LD3v2, venetoclax 31.6 nM): 33.9875
- Raw data (SEAP) (LD3v2, venetoclax 31.6 nM): 27.5949
- Normalized data (SEAP) (LD3v3, venetoclax 10 nM): 83.7011
- Raw data (SEAP) (LD3v3, venetoclax 10 nM): 15.226
- Normalized data (SEAP) (LD3v3, venetoclax 31.6 nM): 89.4274
- Raw data (SEAP) (LD3v3, venetoclax 31.6 nM): 16.2677
